## Library screen at single concentrations

Amino acid sequences for entries named in this document (tags omitted).
UniProt P9WPC5, whole entry: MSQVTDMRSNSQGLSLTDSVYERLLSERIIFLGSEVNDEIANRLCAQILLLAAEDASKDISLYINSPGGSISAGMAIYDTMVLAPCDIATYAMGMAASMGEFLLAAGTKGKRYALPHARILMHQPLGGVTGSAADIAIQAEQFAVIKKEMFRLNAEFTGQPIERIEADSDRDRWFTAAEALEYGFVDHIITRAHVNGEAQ
UniProt P9WPC3, whole entry partner: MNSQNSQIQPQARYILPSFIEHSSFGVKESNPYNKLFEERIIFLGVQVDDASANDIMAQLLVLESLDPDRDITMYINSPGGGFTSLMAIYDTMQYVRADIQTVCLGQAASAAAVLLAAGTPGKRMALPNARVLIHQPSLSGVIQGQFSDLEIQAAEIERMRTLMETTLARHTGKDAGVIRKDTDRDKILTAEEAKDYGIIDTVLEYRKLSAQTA

Measurements from “University of Dundee, Small-Polar-MMV Screening Library” (2021), ChEMBL document CHEMBL3988442.

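ClpP1P2, Mycobacterium tuberculosis (UniProt P9WPC5 and UniProt P9WPC3). Protease assay of ClpP1P2, read by the AMC dye that it sets free. Compounds at 50 µM. Direction is inferred from only a few compounds that gave an IC50; most scored high, so higher reads as stronger inhibition. Most other retested compounds had strongly negative values. Of about 69,000 compounds tested this way, about 10 (0.015%) reached 50% or more in at least one test.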

The filed quantity is “Percent Effect” (%). The controls that fix the scale are not given in the record; negative values are as filed. This is an unselected part of the compounds tested.

compound	effect
CCC(NC(=O)c1ccoc1)c1ccccc1OCC(=O)N1CCCC1 (centres unmarked)	-13.16%
CSC(C)C(=O)N(C)CC(=O)Nc1ccc(Br)cn1 (centres unmarked)	-19.05%
CN1C[C@H](O)[C@]2(CCN(C(=O)NCc3ccccc3)C2)S1(=O)=O	-4.452%
CC(=O)N1CCC2(CCN(C(=O)c3ccc(Cl)c(C(F)(F)F)c3)C2)C1 (centres unmarked)	1.969%
O=C(CN1CCCC1Cn1cccn1)NCCC1=CCCCC1 (centres unmarked)	-17.06%
c1coc(CN2CCC3(CC2)COCCN(CCN2CCCC2)C3)c1	2.081%
CC(C(=O)Nc1ccc(Cl)cn1)n1ccc(C(F)(F)F)n1 (centres unmarked)	-14.14%
O=C(c1ccc(-c2cccs2)cc1F)N1CCN(CCO)CC1	-7.916%
O=c1n(Cc2ccccn2)nc(C2CCNCC2)n1Cc1ccccc1	-8.319%
NS(=O)(=O)N1CCC(C(=O)Nc2cccc(OC(F)F)c2)CC1	8.192%
CNC(=O)[C@@H]1CC[C@@H]2[C@@H](CCN2C(=O)N(C)C)O1	-4.501%
Cc1nc(C)n(C2CCCN(C(=O)c3ccc4[nH]nnc4c3)C2)n1 (centres unmarked)	-20.99%
Cc1ccc(Nc2nccc(C3CN(CC(N)=O)C3)n2)nc1	0.7648%
O=C([C@H]1COC[C@H]2CN(CC3CC3)C[C@H]21)N1CCOCC1	7.006%
CCc1nc(C2CCCN(C(=O)c3ccncc3)C2)no1 (centres unmarked)	-43.47%
COc1ccc2cc(CN(C)C(C)c3nc(C(C)(C)C)no3)ccc2c1 (centres unmarked)	9.333%
CC(C)n1nc(Cn2cccn2)c2c1CN(C1CCOC1)C2 (centres unmarked)	8.275%
CCN1C(=O)CC(c2cnn(C)c2)C12CCN(C(=O)C1CC=CC1)CC2 (centres unmarked)	-10.86%
CCOC(=O)C1CCCCN1Cc1c[nH]nc1-c1ccc(F)cc1F (centres unmarked)	-11.02%
C1CC(c2noc(C3CC3)n2)N(Cc2nc(C3CC3)no2)C1 (centres unmarked)	-23.77%
Cc1cc(C(=O)NC2CCc3c(ccc(=O)n3CC(C)C)C2)no1 (centres unmarked)	-2.771%
CC(C)Oc1ccc(C(=O)NCc2ccc3c(c2)CCCN3C)cn1	-9.404%
COc1ccc(CNC(=O)CCc2c(C)noc2C)cc1F	-14.27%
Cc1cc(C)c2[nH]c(C)c(CC(=O)N(C)CCN(C)C)c2c1	-10.7%
COC(=O)C1Cc2nc[nH]c2CN1Cc1ccc(Sc2ncccn2)o1 (centres unmarked)	-9.982%
Cc1ccc(C(=O)Nc2nn[nH]n2)s1	5.945%
O=C(CCc1ccccn1)NC1CCCN(C2Cc3ccccc3C2)C1 (centres unmarked)	-26.28%
CCCNC(=O)C(C)Nc1ccc(COCC)cc1 (centres unmarked)	-3.753%
CCCNC(=O)NC(=O)CNC(C)(C)c1ccc2c(c1)OCO2	-7.077%
O=C(NCc1nc[nH]n1)c1cc(COc2ccccc2F)[nH]n1	11.46%
COCCC(=O)N1CCC2(COCc3cnc(N4CCOCC4)nc32)C1 (centres unmarked)	6.825%
Cc1ccc(CC(=O)N2CCc3nnc(N(C)C)cc3C2)s1	-23.09%
COCCC(=O)N1CCN(CC(C)C)c2nc(C)ccc2C1	6.609%
COCCC1COC2(CCN(C(=O)c3ccncc3)CC2)C1 (centres unmarked)	9.885%
COc1c(C)cnc(CN(C)C(=O)c2ccccc2F)c1C	-16.21%
Cn1nccc1C(=O)N1CC[C@]2(C[C@H](OCc3ccccn3)CO2)C1	-4.317%
Cn1cc(N2CCC3(CCN(C(=O)c4cccn4C)C3)C2=O)cn1 (centres unmarked)	-21.67%
Cc1cc(F)c(S(=O)(=O)NCC(C)(C)N)cc1F	5.617%
Cc1nc(CN2CCCN(C(=O)COCC3CC3)CC2)cs1	-7.093%
Cc1nc(N2CCCCC2)ncc1-c1cc(O)[nH]n1	0.09649%
Cc1nc2cc(C(=O)N(CCC#N)CCC#N)ccc2n1C	-2.08%
COCCNc1nc2c(c(NCCc3cccs3)n1)CCNCC2	-16.47%
CS(=O)(=O)NCCC1CCCCN1C(=O)NCCc1ccccn1 (centres unmarked)	-7.637%
OC1CCN(c2ccc(CNc3nc4ccccc4o3)cc2F)CC1	8.31%
Cn1ncc2c(N3CC(N4CCCCC4)C3)nc(C3CCCC3)nc21	-0.5389%
CCOc1cc(CNCc2ncc[nH]2)c(Cl)cc1OC(C)C	-20.77%
COc1ccc(Cn2nc(C(N)=O)ccc2=O)c(Cl)c1	-10.07%
COCC(=O)N(Cc1cccc(C)c1)Cc1ccccc1OC	-2.318%
CN(C)CC1CCN(Cc2nccn2CC(F)(F)F)CC1	10.78%
Cc1cc(C(=O)N2CCN(c3nc4c(C(C)C)cccc4s3)CC2)on1	4.642%
O=C(c1cc(C2CC2)on1)N1C[C@H]2CC[C@](O)(c3ccccc3F)[C@H]2C1	-12.1%
CCC[C@@H]1CN(Cc2c[nH]nc2-c2ccc(OC)cc2)C[C@H]1NC(C)=O	-0.159%
Cc1cc(F)ccc1C(=O)N1C[C@@H]2COC[C@]2(COCC2CC2)C1	-5.75%
Cn1cc(NC(=O)C2CC(c3ccccc3)C2)ccc1=O (centres unmarked)	-36.72%
O=C1[C@H]2CN(Cc3ccco3)C[C@H]2CN1c1ccsc1	6.968%
COc1cc2cc(C(=O)O)n(C)c2c(OC)c1OC	-10.92%
Cn1nc(C2CCCN(Cc3cc(F)ccc3F)C2)c2nccnc21 (centres unmarked)	-0.9103%
Cc1cc(C)n(CCC2CC(=O)Nc3cc(O)c(C)cc32)n1 (centres unmarked)	3.22%
O=C(NCCn1cccn1)c1nnc2ccccc2n1	1.038%
N#Cc1ccc(NC(=O)N2CCCCC2CN2CCCC2=O)cc1 (centres unmarked)	6.069%
COc1ccc2[nH]nc(CN3CCC(C(C)N4CCCC4)CC3)c2c1 (centres unmarked)	-4.62%
Cn1ccc(C(=O)N2CCC(Cc3cnc4[nH]ccc4c3)CC2)n1	4.602%
CCN(Cc1ccc2c(c1)OCO2)S(=O)(=O)N(C)C	9.023%
CC(=O)c1c(C)nn(CC(=O)N2CCCC2c2ccc(C(N)=O)s2)c1C (centres unmarked)	-15.16%
Cc1cccc(NS(=O)(=O)c2cc(C(=O)O)oc2C)c1Cl	5.638%
CCc1nc(C2CCCN(C(=O)c3ccc(Cl)cc3)C2)no1 (centres unmarked)	-40.9%
CC(C)NC(=O)NC(C)c1nc(-c2ccccc2)cs1 (centres unmarked)	1.525%
COc1ccccc1C1(CNc2ncc(S(N)(=O)=O)s2)CC1	3.439%
CC(C)c1nc2cc(NC(=O)Cn3ccc(=O)[nH]c3=O)ccc2o1	0.2747%
Cc1cnn(CCNCC(=O)NCCOc2ccc(F)cc2)c1	-6.32%
CCN(CC)C1CCN(c2nccc(C3CCCC3)n2)C1 (centres unmarked)	5.87%
CC(C)CN1CCc2[nH]cnc2C12CCN(C(=O)c1ccccn1)CC2	-0.9531%
NC(=O)[C@@H]1Cc2ccccc2N1C(=O)C1CC(c2ccccc2)=NO1 (some centres unmarked)	2.531%
COc1c(C2CCCN2CCOc2ccccc2C#N)c(C)nn1C (centres unmarked)	-24.33%
CN1CCC2(Cc3ccccc3CN(C(=O)CCN)C2)C1 (centres unmarked)	-11.76%
O=C(C1CC1)N1CCN2C[C@@H](CO)[C@H](c3ccccc3)[C@H]2C1	-4.225%

Repeated from the top, 8 entries:

| compound | effect |
|---|---|
| `CCC(NC(=O)c1ccoc1)c1ccccc1OCC(=O)N1CCCC1` (centres unmarked) | -13.16% |
| `CSC(C)C(=O)N(C)CC(=O)Nc1ccc(Br)cn1` (centres unmarked) | -19.05% |
| `CN1C[C@H](O)[C@]2(CCN(C(=O)NCc3ccccc3)C2)S1(=O)=O` | -4.452% |
| `CC(=O)N1CCC2(CCN(C(=O)c3ccc(Cl)c(C(F)(F)F)c3)C2)C1` (centres unmarked) | 1.969% |
| `O=C(CN1CCCC1Cn1cccn1)NCCC1=CCCCC1` (centres unmarked) | -17.06% |
| `c1coc(CN2CCC3(CC2)COCCN(CCN2CCCC2)C3)c1` | 2.081% |
| `CC(C(=O)Nc1ccc(Cl)cn1)n1ccc(C(F)(F)F)n1` (centres unmarked) | -14.14% |
| `O=C(c1ccc(-c2cccs2)cc1F)N1CCN(CCO)CC1` | -7.916% |